# Assay results published in article PMC7819943, “Rice protein-binding microarrays: a tool to detect cis-acting elements near promoter regions in rice”.
# Sequences of proteins named here, by UniProt entry; tags and fusion partners are left off.
# UniProt Q0JBA9, entry or part of it: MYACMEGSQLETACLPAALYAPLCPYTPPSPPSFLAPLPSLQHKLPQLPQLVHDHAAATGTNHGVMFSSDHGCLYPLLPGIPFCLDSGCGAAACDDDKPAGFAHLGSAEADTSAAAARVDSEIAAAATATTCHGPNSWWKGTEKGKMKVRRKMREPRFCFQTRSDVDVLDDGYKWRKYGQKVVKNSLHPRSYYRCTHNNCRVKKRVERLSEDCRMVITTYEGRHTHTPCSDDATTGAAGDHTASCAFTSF
# The list shows a part of the results.
# Biological target: OsWRKY34 (Oryza sativa, UniProt Q0JBA9 1-250)
# Test: protein-binding microarray (RPBM); PBS, 2% BSA, 51.3 ng/ul salmon testes DNA, 50 uM zinc acetate, 200 nM TF, 25 C, 1 h; high values mean tight binding
# Details: protein: recombinant; tags: N-terminal polyhistidine and DsRed monomer fusion (pET32a); label: CyDye5-dUTP incorporated in the synthesized complementary strand; 3' TTTTT single-stranded linker to array surface; dsDNA, one strand shown
# Outline: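 An Axon 4000B scanner gave the binding signal as per-feature fluorescence intensity in arbitrary units. This followed washing of a custom Agilent array that had been incubated for 1 h at 25 °C with 200 nM protein in PBS, 2% BSA, salmon testes DNA and 50 µM zinc acetate. The proteins were transcription factors fused at the N-terminus to polyhistidine and DsRed, expressed in E. coli BL21-CodonPlus and purified on Ni–NTA.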
row,Sequence,binding signal
1,ATCCTGGGCCGACGACTATCCCGCAACTCATTGCTCGCCTCGGAGTCACCTAGTGCAG,9930 fluorescence intensity (a.u.)
2,CTCACGGTAAATCTCGTCGACGTACAGTAACATATACTGGCGGAGTCACCTAGTGCAG,8120 fluorescence intensity (a.u.)
3,ATCATCTATTTTATATCGTCCATATTATATCATCCTATATCGGAGTCACCTAGTGCAG,10600 fluorescence intensity (a.u.)
4,AGTTTGTCCCATATTCTCAACTTTCCATCACATCATATCACGGAGTCACCTAGTGCAG,10500 fluorescence intensity (a.u.)
5,GGGATTTTGAGTTTTTGCTTGTAGCGTTTGACCACTCGTCCGGAGTCACCTAGTGCAG,9740 fluorescence intensity (a.u.)
6,GATCGAGCTCTACCACCACTGCTTCGCCTTCATCAAGTCCCGGAGTCACCTAGTGCAG,10400 fluorescence intensity (a.u.)
7,GTAATTATCATTTATTTTTATTGTGACTTGATTCATCATCCGGAGTCACCTAGTGCAG,9980 fluorescence intensity (a.u.)
8,GGTCCCACTTCGTCCACTTACCCCTCTATCTCTATTTGCTCGGAGTCACCTAGTGCAG,9630 fluorescence intensity (a.u.)
9,ACAGCACTGTGATGCAGCACTACTTGTTTCCATTACCAAACGGAGTCACCTAGTGCAG,8900 fluorescence intensity (a.u.)
10,GCACGCCCTCGAGTTTCTCCTCCTCGTCGACGTCGACCTCCGGAGTCACCTAGTGCAG,10400 fluorescence intensity (a.u.)
11,GTGTTTTGCAATCCTCTGTTTTACGCTTATATTCCTATTACGGAGTCACCTAGTGCAG,13600 fluorescence intensity (a.u.)
12,ACTCCCAGGTTCCATTTCCCTTTTCTTCTTCCAACTTCCACGGAGTCACCTAGTGCAG,8160 fluorescence intensity (a.u.)
13,CACCCAAAAGGATATATGCTCTGCCCCTTGTCTCCATCTCCGGAGTCACCTAGTGCAG,8050 fluorescence intensity (a.u.)
14,CTACCTCTAGTTCTTCTCCATCGAGTTATTCGTCTTCCATCGGAGTCACCTAGTGCAG,8470 fluorescence intensity (a.u.)
15,GTTTGAAGTTTGTGTGTGTAGGAAAGTTTTGATGTGATGGCGGAGTCACCTAGTGCAG,9140 fluorescence intensity (a.u.)
16,GCAGTCCCTTAATATTATGATTAGCTTTAATTTTTGTTCTCGGAGTCACCTAGTGCAG,10700 fluorescence intensity (a.u.)
17,TTTCTTCTGTTGCTTATATGTCGTTTTATGCCCTATCAGACGGAGTCACCTAGTGCAG,9700 fluorescence intensity (a.u.)
18,TTCCCGGCGCTGTCCATTTCTACTACCAAGCTTGTAAATGCGGAGTCACCTAGTGCAG,8660 fluorescence intensity (a.u.)
19,CATCACATATCAACATTGATCAATCTATCATTACCTTCTGCGGAGTCACCTAGTGCAG,9990 fluorescence intensity (a.u.)
20,CGCTTTAAGATTCGTGCCGGGACACGTGTCATCATCCTACCGGAGTCACCTAGTGCAG,9290 fluorescence intensity (a.u.)
21,CCAACCCACCTGGGCCGCCGCGTCTCGTTCTCTCCTCCAACGGAGTCACCTAGTGCAG,9620 fluorescence intensity (a.u.)

# For convenience, part of the list above.
row,Sequence,binding signal
2,CTCACGGTAAATCTCGTCGACGTACAGTAACATATACTGGCGGAGTCACCTAGTGCAG,8120 fluorescence intensity (a.u.)
3,ATCATCTATTTTATATCGTCCATATTATATCATCCTATATCGGAGTCACCTAGTGCAG,10600 fluorescence intensity (a.u.)
4,AGTTTGTCCCATATTCTCAACTTTCCATCACATCATATCACGGAGTCACCTAGTGCAG,10500 fluorescence intensity (a.u.)

# Next part.

row,Sequence,binding signal
1,TGTTGCTATGTCGAAGATTTTGTTTTGTTGTATTTGGTGACGGAGTCACCTAGTGCAG,10400 fluorescence intensity (a.u.)
2,AACTGACTATACTCACTTCAAATTTGAACTCACATGTTTTCGGAGTCACCTAGTGCAG,12200 fluorescence intensity (a.u.)
3,GAGAGAGAGAGAGAGAGAGAGATAGCCGGGGAGGGAGGGGCGGAGTCACCTAGTGCAG,12200 fluorescence intensity (a.u.)
4,TTTTTTCTCATTTCTTCGATTTGTGCGTCGAACTGCAGCTCGGAGTCACCTAGTGCAG,8740 fluorescence intensity (a.u.)
5,AGTTCAAAATTTTAGTGATTTTTATTGTCGGGGATTTTCACGGAGTCACCTAGTGCAG,9320 fluorescence intensity (a.u.)
6,ACACTCGCGCTCCGCCGCCCTCACGCGTCTTCCATTCTTGCGGAGTCACCTAGTGCAG,8400 fluorescence intensity (a.u.)
7,TAAGTTGACTGTTTTTATATGTTTGTATCTTCAGAAGTTCCGGAGTCACCTAGTGCAG,8260 fluorescence intensity (a.u.)
8,TTCATTCCTCCATCCTACTAGATTTTAGCGGGTCGTTTTTCGGAGTCACCTAGTGCAG,9540 fluorescence intensity (a.u.)
9,AGGAAATCGGATGAACTTTTTTTTACATGTTTTTTAGATTCGGAGTCACCTAGTGCAG,8100 fluorescence intensity (a.u.)
10,GGTTTTCTCTCTACTTATGTTTAGCAATTCCGTAAAAAATCGGAGTCACCTAGTGCAG,9280 fluorescence intensity (a.u.)
11,ACGGCATTTTTCGCCCCTTTTGTCACTGAAACACTTCACCCGGAGTCACCTAGTGCAG,8860 fluorescence intensity (a.u.)
12,GATCGTTGCTGGTTGTAAAATTTAGTTTTTTTTCTAATTTCGGAGTCACCTAGTGCAG,14600 fluorescence intensity (a.u.)
13,ACGGAATGTGGAGAGGTGGGTGGGGCCTCGTGGAGATTCCCGGAGTCACCTAGTGCAG,9560 fluorescence intensity (a.u.)
14,GCAAAAAAAACCTGCTTGCCCTGTCCCGCTTGTATCCCCACGGAGTCACCTAGTGCAG,9090 fluorescence intensity (a.u.)
15,GTTGACTTTTTAGTACGTGTTTGACCATTCGTCTTATTCACGGAGTCACCTAGTGCAG,10100 ± 646 fluorescence intensity (a.u.)
16,GAACCATCTGTGTTTGTTCTTCTTTTGCATGAGACGCTCTCGGAGTCACCTAGTGCAG,9280 fluorescence intensity (a.u.)
17,ACACCTCTGACCGCCCTTGCAAAACATACCCGGTTGCTAACGGAGTCACCTAGTGCAG,10000 fluorescence intensity (a.u.)
18,TTGGGTTTCCGTGCCCAACTTTGACTGTTTGTCTTATATGCGGAGTCACCTAGTGCAG,8350 fluorescence intensity (a.u.)
19,TGGTTCTCACACTGCTCAAAAGCTGGCCTCTTTATTCAGTCGGAGTCACCTAGTGCAG,8180 fluorescence intensity (a.u.)
20,CCTGTCTCCACTCACCGGTCACCACTCACCACTGGACCACCGGAGTCACCTAGTGCAG,10400 fluorescence intensity (a.u.)
21,GTGCAGTTGTCTTCTTCTGTTCTTTGGTCATATAGTAGTTCGGAGTCACCTAGTGCAG,14900 fluorescence intensity (a.u.)

row,Sequence,binding signal
1,TTTCTTCATTTCATGATTGTATATTCTGGTGTTTTTGTGGCGGAGTCACCTAGTGCAG,9250 fluorescence intensity (a.u.)
2,GCACCACCAGATCTCCCTTGGACCGGTTCCATCGTCTCCGCGGAGTCACCTAGTGCAG,10200 fluorescence intensity (a.u.)
3,ACCTTTACCATATACAGTGTCTTCAATTTTTTTTTTTGGTCGGAGTCACCTAGTGCAG,9610 fluorescence intensity (a.u.)
4,TTTCATGGAGCCAAGTTAGCGCTTTTTTTTCCTTTTCTTCCGGAGTCACCTAGTGCAG,8730 fluorescence intensity (a.u.)
5,GGAAGGGGTGGAACAGTAGATGTTTAGCCTACAGGAAAGTCGGAGTCACCTAGTGCAG,8560 fluorescence intensity (a.u.)
6,GAGATCATTTTCCCTCGCTTCGGAACACCGAGAATGGTGACGGAGTCACCTAGTGCAG,8490 fluorescence intensity (a.u.)
7,TTTGAATCCGTCAACTATTTTCCTTTGATCGTGTCGTGCCCGGAGTCACCTAGTGCAG,12000 fluorescence intensity (a.u.)
8,GACTTTCTAGCATTGCCCATATTCATATAGATGTTAATGACGGAGTCACCTAGTGCAG,8260 fluorescence intensity (a.u.)
9,AAACCTCTCATGTTCATCTCAATTTTCTCAGTTGTGCATTCGGAGTCACCTAGTGCAG,10200 fluorescence intensity (a.u.)
10,GTTTGTCTTTCTGAATCTGCTTGATTTCCTAGTTGCATGTCGGAGTCACCTAGTGCAG,11400 fluorescence intensity (a.u.)
11,CCATTTCCTTGCAAGTCGTACATATACACAGTTACACACACGGAGTCACCTAGTGCAG,8180 fluorescence intensity (a.u.)
12,TGCCACCTTCTTCATCTCCTACCTCGTCCTACTCCTATCACGGAGTCACCTAGTGCAG,8640 fluorescence intensity (a.u.)
13,TTTTATCACCATGTATTGCCCTCTTTCTATCTTGTAAGCTCGGAGTCACCTAGTGCAG,10400 fluorescence intensity (a.u.)
14,TTGAAAAGTCAACGGCGTCAAATATTTAGAGATGGAGGCACGGAGTCACCTAGTGCAG,8910 fluorescence intensity (a.u.)
15,TATCATCCCACTGTACCACTGGCTGCTTATTAATCGGCAACGGAGTCACCTAGTGCAG,9100 fluorescence intensity (a.u.)
16,GTGTATTAAGAAAACACATACTCTATTCGTTTTTCATATTCGGAGTCACCTAGTGCAG,8100 fluorescence intensity (a.u.)
17,CTTTTTTAAATCCTCCACTCTCATGTTATCTAATCCTATTCGGAGTCACCTAGTGCAG,9390 fluorescence intensity (a.u.)
18,GATTTGGATTTTGCAGCTCAGGGTTCTATTCAATTTGGGGCGGAGTCACCTAGTGCAG,9000 fluorescence intensity (a.u.)
19,CACCCTGCCATTGCTGTGTATTTAAGTGGCATTGTCTGTCCGGAGTCACCTAGTGCAG,8530 fluorescence intensity (a.u.)
20,CCACTGATACATTGTTGTTCCATGCCAGCATGCCTTTTATCGGAGTCACCTAGTGCAG,8220 fluorescence intensity (a.u.)
21,ATTCGATTCCTCACTTGCCTTGCCGCCCTCATTTTCCTCACGGAGTCACCTAGTGCAG,8500 fluorescence intensity (a.u.)

row,Sequence,binding signal
1,CGGCGAGTTCGATCGATCGGTGTATACGCGTATCGTGTTGCGGAGTCACCTAGTGCAG,8300 fluorescence intensity (a.u.)
2,TTCTTTTTTTTTTCTTTTGCTATTCCAGGCGTTTGCGGGGCGGAGTCACCTAGTGCAG,11300 fluorescence intensity (a.u.)
3,AGAAAAGAATCTACAGTACCCACATGGCATACTCTCTTTTCGGAGTCACCTAGTGCAG,9950 fluorescence intensity (a.u.)
4,AACAGGAGGAGGAGGAGGAGGAGGAGGAGGAGAGGTGGGGCGGAGTCACCTAGTGCAG,9280 fluorescence intensity (a.u.)
5,CCTCTTTGTGTTCTGGCAGAAGTCTATGTCCCGCGATGAACGGAGTCACCTAGTGCAG,11700 fluorescence intensity (a.u.)
6,TATGGCCCCGCGCGTCGCCCGCTTCTGCCGACCGCCGCTCCGGAGTCACCTAGTGCAG,8170 fluorescence intensity (a.u.)
7,CGTATTAGGTATTTAGCGTCGGTGGCGTCTCTCCTAACCTCGGAGTCACCTAGTGCAG,8440 fluorescence intensity (a.u.)
8,ATTGTTTTCCCCGAACATTGGAGTCGTGTTTGGTTGGTATCGGAGTCACCTAGTGCAG,8690 fluorescence intensity (a.u.)
9,GGCCACACCACACAGGATGGAACCCCAACCCTCGCTCAATCGGAGTCACCTAGTGCAG,8170 fluorescence intensity (a.u.)
10,TGACATGTAGGTCGAACTCGAACGTCTCGAGGGTTTTGACCGGAGTCACCTAGTGCAG,9630 fluorescence intensity (a.u.)
11,TATCCTCTCTACTTTTTCTTAACCTGCACGCTCATGTTGTCGGAGTCACCTAGTGCAG,8710 fluorescence intensity (a.u.)
12,GAATAAAAAAACGTCACATCATTTAATCGTCTTAAGATTACGGAGTCACCTAGTGCAG,8120 fluorescence intensity (a.u.)
13,TTCCCAGTTCACTTGACAGCTCGCAAGGATCCATATGACACGGAGTCACCTAGTGCAG,9160 fluorescence intensity (a.u.)
14,CTCTCTCTCCAATTCCTCCTCGCCTCGGTTGTTTCGTCCCCGGAGTCACCTAGTGCAG,8080 fluorescence intensity (a.u.)
15,ACAGTACTCCTAGTCAAACCCTCTGTTCACCAGTCCGTCGCGGAGTCACCTAGTGCAG,8420 fluorescence intensity (a.u.)
16,GCTACATAATACTACAGAGGCTAGAGGGGCTAATATGAAACGGAGTCACCTAGTGCAG,8620 fluorescence intensity (a.u.)
17,TTATCCCTTTTTTTCTCCTTTCTTATCCCTTTTTTTTTCTCGGAGTCACCTAGTGCAG,13800 fluorescence intensity (a.u.)
18,GTCCTCACCGTCCCCGACCCTCCGCCCACCACTCCCTCGGCGGAGTCACCTAGTGCAG,10700 fluorescence intensity (a.u.)
19,AACGAATTGTTAATTTTAAAAAAGTCAACGGTGTTAAATACGGAGTCACCTAGTGCAG,11800 fluorescence intensity (a.u.)
20,GGTCTATGAGCAGTCATTGGTTCGGGTTGAGGTGAATTTACGGAGTCACCTAGTGCAG,12300 fluorescence intensity (a.u.)
21,CCCTCCCACGGCTGGATCCAGCTCCGCCGCCGCTGTATCTCGGAGTCACCTAGTGCAG,8570 fluorescence intensity (a.u.)
